In PubChem BioAssay AID1671190 (National Center for Advancing Translational Sciences (NCATS), 2021):
In all, about 580,000 compounds went through this assay and about 6,100 (1.1%) were called active. Inconclusive results, whose numbers are uncertain, are shown with a selection of clear calls. The call rests on the fitted dose curve; in most records, active means well fitted inhibition curve with a large enough effect; inconclusive means small, poorly fitted or top-dose-only effect, or another doubt; inactive means no such curve, though single readings can be large or run the other way. A potency beside an inconclusive call is a rough fit, not a confirmed value.

Protein sequences, listed by entry. Tags and fused reporters are not part of them. Lines headed by an entry give the natural chain unless they say otherwise; changes in a name come on top.
UniProt P18054: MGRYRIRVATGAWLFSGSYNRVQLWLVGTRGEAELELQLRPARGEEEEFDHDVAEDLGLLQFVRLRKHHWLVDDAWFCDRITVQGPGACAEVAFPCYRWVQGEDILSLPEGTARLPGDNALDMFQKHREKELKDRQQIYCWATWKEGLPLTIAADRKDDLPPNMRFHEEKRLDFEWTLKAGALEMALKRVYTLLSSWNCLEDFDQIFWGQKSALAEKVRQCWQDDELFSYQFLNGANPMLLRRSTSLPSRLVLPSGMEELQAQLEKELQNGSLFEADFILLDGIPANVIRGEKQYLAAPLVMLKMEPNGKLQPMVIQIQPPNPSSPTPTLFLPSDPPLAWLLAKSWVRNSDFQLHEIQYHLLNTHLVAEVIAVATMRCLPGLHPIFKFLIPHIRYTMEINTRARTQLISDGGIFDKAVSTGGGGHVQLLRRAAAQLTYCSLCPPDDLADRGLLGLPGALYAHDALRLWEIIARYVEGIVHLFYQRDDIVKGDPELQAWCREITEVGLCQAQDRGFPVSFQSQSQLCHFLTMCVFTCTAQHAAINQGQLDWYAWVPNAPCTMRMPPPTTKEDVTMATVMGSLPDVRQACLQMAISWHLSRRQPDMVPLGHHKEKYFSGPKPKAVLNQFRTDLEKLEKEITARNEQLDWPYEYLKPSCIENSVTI

Each molecule was assayed against Polyunsaturated fatty acid lipoxygenase ALOX12 (Homo sapiens) (UniProt P18054) (assay: Primary qHTS assay for inhibitors of human arachidonate 12S-lipoxygenase (ALOX12): Round 2). Conditions: purified 12hLO, xylenol orange hydroperoxide absorbance; series mostly up to 108 µM.
How it was run: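 Hydroperoxide product was detected by ferrous iron/xylenol orange as the 573 to 405 nm absorbance ratio. Arachidonic acid at 40 uM (final) was turned over for 30 min at room temperature by 150 nM human 12hLO, pH 7.0 Hepes buffer, after 15 min compound preincubation.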
Potency means the concentration at half of the fitted maximal effect.

Q: How did the Potency turn out when `Cc1ccc(C(=O)N(CCC(N)=O)c2ccc(F)cc2)cc1` was run?
A: inconclusive: 50.1 µM [inhibitor, partial curve]

Q: Which Potency does the source give for `O=C(CSCc1cnn(-c2ccccc2)c1-n1cccc1)NCCc1ccccc1` here?
A: inconclusive: 7.08 µM [inhibitor, partial curve, poor fit]

Q: Which Potency does the source give for `Cc1ccc2c(c1)sc(-c1ccc(N(C)C)cc1)[n+]2C` here?
A: inconclusive: 39.8 µM [inhibitor, partial curve, poor fit]

Q: Which Potency does the source give for `COc1ccc(-c2nc(CN3CCCC3c3ccsc3)co2)cc1` (stereo not drawn) here?
A: inconclusive: 79.4 µM [inhibitor, partial curve, poor fit]

Q: How did the Potency turn out when `Cc1ccc(-c2nc3ccccc3n2CCNC(=O)NCC(C)C)cc1` was run?
A: inactive

Q: Which Potency does the source give for `CC1=Nc2cc(C(=O)N3CCCCC3)ccc2Sc2ccc(C)cc21` here?
A: inconclusive: 39.8 µM [inhibitor, partial curve, poor fit]

Q: How did the Potency turn out when `Cn1nccc1C(=O)NCCc1noc(-c2ccccc2)n1` was run?
A: inactive

Q: Which Potency does the source give for `O=C(O)/C(=C\c1cccnc1)NC(=O)c1ccccc1` here?
A: inconclusive: 0.282 µM [inhibitor, full curve, poor fit]

Q: `O=C1COCC2(CN1)CN(C(=O)c1ccc(Cl)cc1)C2` was tested. Which Potency did it give?
A: inactive

Q: With `CCCc1cc(-c2n[nH]c(=S)n2CC)cs1` as the molecule, how does the Potency read?
A: inconclusive: 35.5 µM [inhibitor, single point]

Q: How did the Potency turn out when `Cc1nc(NC(=O)Cn2nc3c(cc2=O)CCCC3)sc1C` was run?
A: inconclusive: 5.01 µM [inhibitor, full curve]

Q: How did the Potency turn out when `CCCC1=C(C(=O)OCC)C(c2ccc(C)cc2)C(C#N)=C(N)O1` (stereo not drawn) was run?
A: inconclusive: 35.5 µM [inhibitor, partial curve, poor fit]

Q: `COc1cc(C(=O)NCC(c2ccco2)N2CCc3ccccc32)cc(OC)c1OC` (stereo not drawn) was tested. Which Potency did it give?
A: inconclusive: 112 µM [inhibitor, single point]

Q: `Cc1ccc(C(=O)N/C(=C/c2ccc(-c3ccc([N+](=O)[O-])cc3)o2)C(=O)NCCCN(C)C)cc1` was tested. Which Potency did it give?
A: inconclusive: 44.7 µM [inhibitor, partial curve, poor fit]

Q: Which Potency does the source give for `COc1cc(C#Cc2c(-c3ccccc3)n(C)c3ccccc23)cc(OC)c1` here?
A: inactive

Q: `Cc1ccc(/C=C2\Oc3cc(OS(C)(=O)=O)ccc3C2=O)cc1` was tested. Which Potency did it give?
A: inconclusive: 100 µM [inhibitor, partial curve, poor fit]

Q: How did the Potency turn out when `COc1cc(OC)c2ccc(=O)oc2c1C(CCN1CCOCC1)c1ccc2c(c1)OCO2` (stereo not drawn) was run?
A: inconclusive: 25.1 µM [inhibitor, full curve, poor fit]

Q: For `O=C1c2ccccc2NC(c2ccccn2)N1c1ccc(Cl)cc1` (stereo not drawn), which Potency is on record?
A: inconclusive: 31.6 µM [inhibitor, single point]
